Results taken from PubChem BioAssay AID504467 (National Center for Advancing Translational Sciences (NCATS), 2011).
Screen size: about 330,000 compounds; about 7,700 (2.3%) were called active. This list was built around the results that the source calls inconclusive (neither active nor inactive); the mix of calls is not that of the screen. Calls come from the whole dose curve; as a rule, active = well fitted inhibition curve with a large enough effect; inconclusive = small, poorly fitted or top-dose-only effect, or effect the other way; inactive = flat fitted curve, though single readings scatter. Where the call is inconclusive, the potency comes from a doubtful curve fit.

experiment: qHTS screen for small molecules that inhibit ELG1-dependent DNA repair in human embryonic kidney (HEK293T) cells expressing luciferase-tagged ELG1; details: HEK293T ELG1-luciferase reporter, luminescence, 16 h, DNA damage induced by 5-fluorouridine; activity change, negative = inhibition: at 46.1 µM (top of the series); note: nearly all actives have a fitted effect of over 55% in size
Method in brief: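 Luminescence from the luciferase reporter, measured 30 min after ONE-Glo reagent at room temperature, was the read-out. Beforehand, 2,000 cells per well were exposed for 16 hr at 37 °C to 5-fluorouridine together with compound or vehicle.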
% is set by controls: 0 for no effect and ±100 for the full control effect; potency is the fitted concentration of half-maximal effect.

| SMILES | Potency | activity change, negative = inhibition |
| --- | --- | --- |
| FC(F)Sc1nc2ccccc2[nH]1 | inconclusive: 23.1 µM [activator, single point] | – |
| COC(=O)c1cccc2c1-c1ccccc1/C2=N/O | inconclusive: 3.66 µM [inhibitor, full curve] | – |
| Cc1ccc(-n2nnnc2SCC(=O)Nc2ccccc2N2CCCCC2)cc1C | active: 9.2 µM | – |
| CCc1ccc(-c2cc(C(=O)NN3CCOCC3)c3ccccc3n2)cc1 | inconclusive: 13 µM [activator, partial curve] | – |
| O=C(NC1CCCCC1)c1ccc(CNc2nc(=S)[nH]c3ccccc23)cc1 | inconclusive: 29.1 µM [inhibitor, single point] | – |
| CCCOc1ccc(/C=N/Nc2cc(N3CCOCC3)ncn2)c(O)c1 | active: 2.91 µM | – |
| COc1ccc(Cc2nnc(NC(=O)C3CCCO3)s2)cc1OC (stereo not drawn) | inconclusive: 0.259 µM [activator, full curve, poor fit] | – |
| CCC(C)(C)n1nnnc1C(c1cc2cc(OC)c(OC)cc2[nH]c1=O)N1CCc2ccccc21 (stereo not drawn) | inconclusive: 35.5 µM [inhibitor, single point] | – |
| CN(CC(=O)Nc1cccc(F)c1)C(=O)C1CC(=O)N(CCc2ccccc2)C1 (stereo not drawn) | inconclusive: 29.1 µM [activator, single point] | – |
| Cc1cccc(NC(=O)COc2cccc3c2CCN(Cc2ccccc2)C3=O)c1C | inconclusive: 23.1 µM [inhibitor, single point] | – |
| Cc1ccc(S(=O)(=O)NCCC(=O)O)cc1 | inconclusive: 32.6 µM [activator, partial curve, poor fit] | – |
| Cc1ccccc1C(=O)NNC(=O)CSc1nc(-c2ccccc2)cc(=O)[nH]1 | inconclusive: 23.1 µM [activator, single point] | – |
| Cc1c(Cl)cccc1NC(=O)CNC(=O)c1ccc(F)cc1 | inconclusive: 29.1 µM [activator, single point] | – |
| Cc1cccc2c1-c1sc(C(=O)NCCCN3CCc4ccccc4C3)cc1CO2 | inconclusive: 14.6 µM [inhibitor, partial curve, poor fit] | – |
| Cc1ccc(NC(=O)c2nc[nH]c2C(=O)NCCCCNC(=O)c2[nH]cnc2C(=O)Nc2ccc(C)cc2)cc1 | active: 0.73 µM | – |
| Oc1ccc(Cl)cc1-c1cc(-c2cccc(Br)c2)n[nH]1 | inconclusive: 25.9 µM [inhibitor, single point] | – |
| CCS(=O)(=O)CCSC(=N)N | – | inactive: -18.4% |
| COc1ccc2nc(/N=C(\N)NC(=O)Nc3ccccc3)nc(C)c2c1 | – | inactive: -16.6% |
| COc1cc(NC(=O)COC(=O)Cc2ccc(-c3ccccc3)cc2)cc(OC)c1 | – | inactive: -6.53% |
| Oc1ccc(Br)cc1C=Nc1cccn2cc(-c3ccccc3)nc12 | inconclusive: 13 µM [activator, partial curve] | – |
| CCOC(=O)N1CCN(S(=O)(=O)c2ccc(Br)s2)CC1 | – | inactive: 0.484% |
| S=c1nc(-c2csc3c2CCCC3)[nH][nH]1 | – | inactive: 0.63% |
| CC(=O)c1sc(-c2ccc(Cl)cc2)nc1C | inconclusive: 16.4 µM [activator, partial curve] | – |

| SMILES | Potency | activity change, negative = inhibition |
| --- | --- | --- |
| Cc1c(C(=O)c2ccc(Cl)cc2Cl)cnc2cc3c(cc12)OCO3 | inconclusive: 14.6 µM [inhibitor, partial curve, poor fit] | – |
| Cc1ccc(O)c(CCc2ccc(O)cc2)n1 | inconclusive: 20.6 µM [activator, partial curve, poor fit] | – |
| O=C(NCCN1CCOCC1)c1cc(-c2cccc(O)c2)on1 | inconclusive: 29.1 µM [activator, partial curve, poor fit] | – |
| COc1cc(Cn2c(=O)oc3ccc(C)cc32)ccc1OC(C)C | – | inactive: -9.46% |
| COc1ccccc1NC(=O)c1cc([N+](=O)[O-])ccc1N1CCOCC1 | – | inactive: 9.47% |
| CCSc1nnc(NC(=O)CSc2nc(CC)nc3c2c(=O)n(C)c(=O)n3C)s1 | inconclusive: 32.6 µM [inhibitor, single point] | – |
| CC(C)Cn1c(N)c(C(=O)COC(=O)c2cc(S(=O)(=O)N3CCOCC3)ccc2Br)c(=O)n(C)c1=O | inconclusive: 23.1 µM [inhibitor, partial curve, poor fit] | – |
| c1ccn2c(SCc3ccc4c(c3)OCCO4)nnc2c1 | inconclusive: 18.4 µM [activator, partial curve] | – |
| COc1ccc(C2(CNC(=O)c3cc([N+](=O)[O-])cc([N+](=O)[O-])c3)CCCC2)cc1OC | inconclusive: 20.6 µM [inhibitor, single point] | – |
| CCCCn1c(SCC(=O)N2CCC(C)CC2)nc2cc(S(N)(=O)=O)ccc21 | inconclusive: 13 µM [inhibitor, partial curve, poor fit] | – |
| Cc1ccnc(NC(=O)COc2ccc(Cl)cc2)n1 | inconclusive: 23.1 µM [activator, partial curve] | – |
| CC(=O)c1ccc(NC(=O)CCc2nnc3ccc(NCc4ccco4)nn23)cc1 | inconclusive: 14.6 µM [activator, partial curve] | – |
| O=C(NN1C(=O)c2ccccc2NC1c1cccnc1)c1ccc([N+](=O)[O-])cc1 (stereo not drawn) | inconclusive: 5.17 µM [activator, single point] | – |
| CC1CN(C(=O)Cn2c(C(F)(F)F)nc3ccccc32)CC(C)O1 (stereo not drawn) | – | inconclusive: 253% [activator] |
| O=C(NCc1ccccn1)Nc1cccc(F)c1 | inconclusive: 14.6 µM [activator, partial curve, poor fit] | – |
| CCN(C(=O)CCS(=O)(=O)c1cc2c(cc1Cl)NC(=O)CO2)c1ccccc1 | – | inactive: 8.59% |
| CCCCNC(=S)Nc1ccc(C(F)(F)F)cc1 | inconclusive: 25.9 µM [inhibitor, single point] | – |
| Cc1ccc(-n2c(C)cc(C(=O)CSc3nnnn3C)c2C)cc1 | inconclusive: 1.84 µM [activator, full curve] | – |
| Cc1ccc(NC(=O)c2ccc(S(=O)(=O)NCc3cccnc3)cc2)cc1C | inconclusive: 29.1 µM [inhibitor, partial curve, poor fit] | – |
| COc1ccc(C(=O)Nc2ccc(Cl)cc2C(=O)N2CCCC(C)C2)cc1OC (stereo not drawn) | inconclusive: 23.1 µM [inhibitor, single point] | – |
| CN=C(Nc1ccc(C(=O)OC)s1)c1ccccc1 | inconclusive: 29.1 µM [activator, single point] | – |
| O=C(COC(=O)Cc1cccc(C(F)(F)F)c1)NCc1ccco1 | – | inactive: 11.9% |
| O=C(/C=C/c1ccccc1[N+](=O)[O-])Nc1cccnc1 | inconclusive: 11.6 µM [activator, partial curve] | – |

| SMILES | Potency | activity change, negative = inhibition |
| --- | --- | --- |
| COc1cccc(N2CC(NS(=O)(=O)c3cccnc3)CC2=O)c1 (stereo not drawn) | active: 4.11 µM | – |
| CC(C)CCn1c(=O)c(C(=O)N/N=C/c2cccc(F)c2)c(O)c2ccccc21 | – | inactive: 8.97% |
| C=CCSc1ccc(S(=O)(=O)N2CCN(C)CC2)cn1 | inconclusive: 25.9 µM [activator, single point] | – |
| CCC(=O)OC1(C(=O)CCl)[C@@H](C)C[C@H]2[C@@H]3CCC4=CC(=O)C=C[C@]4(C)[C@@]3(F)[C@@H](O)C[C@@]21C (stereo partly drawn) | inconclusive: 5.01 µM [activator, single point] | – |
| CCOc1ccccc1NC(=O)COC(=O)C(Cc1ccccc1)NC(=O)c1ccco1 (stereo not drawn) | – | inactive: 5.47% |
| CC(NC(=O)C12CC3CC(CC(C3)C1)C2)C(=O)N/N=C/C1=C(N2CCOCC2)C(=C\c2ccccc2)/CC1 (stereo not drawn) | – | inactive: -7.34% |
| CC(=O)Nc1ccc(NC(=O)/C=C/c2ccccc2)cc1 | inconclusive: 20.6 µM [activator, partial curve] | – |
| COC(=O)c1cc(NC(=O)c2ccccc2)c(=O)oc1/C=C/Nc1ccc(Oc2ccccc2)cc1 | – | inactive: 3.26% |
| Cc1cccc(N2CCN(C(=O)NCc3ccc(Cl)cc3)CC2)c1 | – | inactive: -27.6% |
| CC(=O)C1=C(C)NC(SCc2cccc([N+](=O)[O-])c2)=C(C#N)C1c1ccco1 (stereo not drawn) | inconclusive: 25.9 µM [inhibitor, single point] | – |
| CCS(=O)(=O)n1nc(-c2ccc(Cl)cc2)nc1SCc1ccccc1 | inconclusive: 13 µM [activator, partial curve] | – |
| COc1ccc(-c2noc(N3CCC(C(=O)NCc4ccc(Cl)cc4)CC3)n2)cc1 | inconclusive: 3.66 µM [inhibitor, partial curve, poor fit] | – |
| CCOc1ccc(CNC(=O)c2ccco2)cc1 | inconclusive: 32.6 µM [activator, partial curve, poor fit] | – |
| CC(=O)COc1ccc2c(-c3cccc([N+](=O)[O-])c3)cc(=O)oc2c1 | inconclusive: 29.1 µM [inhibitor, single point] | – |
| O=C(c1cc(=O)c2ccccc2o1)N(Cc1ccccc1)C1CCS(=O)(=O)C1 (stereo not drawn) | inconclusive: 25.9 µM [activator, partial curve, poor fit] | – |
| Cc1c(CCOC(=O)CC23CC4CC(CC(C4)C2)C3)sc[n+]1Cc1ccccc1 | – | inactive: 9% |
| O=C(NC1CCS(=O)(=O)C1)Oc1ccccc1 (stereo not drawn) | – | inactive: -2.82% |
| O=C(Nc1ccc(Oc2ccc3c(c2)C(=O)N(c2ccc(O)cc2)C3=O)cc1)c1cccs1 | inconclusive: 8.2 µM [inhibitor, partial curve] | – |
| Cc1ccc(S(=O)(=O)CCC(=O)N(CCN2CCOCC2)c2nc3ccccc3s2)cc1 | inconclusive: 9.2 µM [activator, partial curve] | – |
| O=S(=O)(NCC(c1ccc2c(c1)OCO2)N1CCOCC1)c1ccc(Br)cc1 (stereo not drawn) | – | inactive: 17.3% |
| COc1ccc(-c2nn3c(C4CCCCC4)nnc3s2)cc1OC | inconclusive: 29.1 µM [inhibitor, single point] | – |
| CCN1CCN(C(=O)c2ccc(CN(c3ccccc3)S(=O)(=O)c3ccccc3)cc2)CC1 | – | inactive: 4.93% |

Part of the list above, field by field.
CCOc1ccccc1NC(=O)COC(=O)C(Cc1ccccc1)NC(=O)c1ccco1 (stereo not drawn)
  activity change, negative = inhibition: inactive: 5.47%
CC(NC(=O)C12CC3CC(CC(C3)C1)C2)C(=O)N/N=C/C1=C(N2CCOCC2)C(=C\c2ccccc2)/CC1 (stereo not drawn)
  activity change, negative = inhibition: inactive: -7.34%
CC(=O)Nc1ccc(NC(=O)/C=C/c2ccccc2)cc1
  Potency: inconclusive: 20.6 µM [activator, partial curve]
COC(=O)c1cc(NC(=O)c2ccccc2)c(=O)oc1/C=C/Nc1ccc(Oc2ccccc2)cc1
  activity change, negative = inhibition: inactive: 3.26%
